Here are results for two sequences from PMC4339472.

The target in data set [1] is T1, MEF2D (mouse (BV2 microglia cell line)) (UniProt Q63943).
T1 sequence (looked up, limits assumed): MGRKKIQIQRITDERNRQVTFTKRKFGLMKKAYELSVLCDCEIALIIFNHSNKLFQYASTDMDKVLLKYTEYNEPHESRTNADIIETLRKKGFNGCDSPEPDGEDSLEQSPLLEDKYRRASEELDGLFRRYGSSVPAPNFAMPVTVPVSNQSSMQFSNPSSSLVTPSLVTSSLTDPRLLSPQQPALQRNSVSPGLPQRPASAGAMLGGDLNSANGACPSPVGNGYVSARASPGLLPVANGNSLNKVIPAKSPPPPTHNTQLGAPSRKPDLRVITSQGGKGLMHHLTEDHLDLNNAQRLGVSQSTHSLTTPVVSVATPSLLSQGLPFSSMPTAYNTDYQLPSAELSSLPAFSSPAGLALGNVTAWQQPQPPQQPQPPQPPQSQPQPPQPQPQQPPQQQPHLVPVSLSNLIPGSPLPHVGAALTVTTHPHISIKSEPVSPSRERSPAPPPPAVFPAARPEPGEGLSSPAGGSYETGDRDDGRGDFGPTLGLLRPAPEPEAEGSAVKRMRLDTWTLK
The experiment in a line: EMSA. The note with it: BV2 whole cell extract, complex nearly abolished; EMSA as described in ref 23; antibody 1 h at 4 C after incubation with labeled probe; salt and pH not given; protein in an extract. Background: A gel shift assay detects complexes by their altered migration in electrophoresis.

Data set [2] deals with T1, MEF2D (mouse (BV2 microglia cell line)). The experiment in a line: EMSA supershift. The note with it: BV2 whole cell extract, complex increased after LPS 24 h; EMSA as described in ref 23; antibody 1 h at 4 C after incubation with labeled probe; salt and pH not given; protein in an extract.

For at least one entry, the source does not settle the construct or the ends of the probe. Where cells or extracts were used, other partners may take part. For some assays here: A weaker result is weaker than the reference pair of the same experiment. Protein sequences can lack the tags named with them.

For “TCGACGGGCGATTTTTCGGGCCG (double strand) [MEF2 mutant probe (MT)]”, the binding result in data set [1] is reported as “binds more weakly”.
Take “TCGACGGGCTATTTTTAGGGCC (double strand) [MEF2 wild type probe]”: in data set [2], the binding result is “binds”.
